Test results: patent US20140148501, “DNA APTAMERS FOR PROMOTING REMYELINATION” (MAYO FOUNDATION FOR MEDICAL EDUCATION AND RESEARCH, published 2014)
For at least one entry, the source does not settle the construct or the ends of the probe. At least one result comes from cells or an extract, where the contact may be indirect. A negative result means that nothing was seen under these conditions.

Tested on: Crude myelin suspension (protein and lipid mixture) (Mus musculus)
Assay: pull-down
Conditions: centrifugal sedimentation, PBS, Mg, 37 C 3 h, protein in an extract, label: 5'-fluorescein, single-stranded DNA

| Sequence | binding result | binding result (crude mixture, no affinity estimate) |
| --- | --- | --- |
| AAAGAACAAAAAGGATAAAGGGGGAGACGGGGGGAACATGGGG [3060] | no binding | – |
| GGGTCGGCGGGTGGGGTGGGAGGTGGTCTTGTCTCTGGGT [3064] | – | binds |
| TTTTTTTTTTTTTTTTTTTTTTTTTTTTTTTTTTTTTTTT [3202 (dT40)] | no binding | – |
